Measurements as given in paper PMC12781089.
No constants are given. Whether binding was seen depends on the method and setting. Binding seen in cells or lysates may run through a third protein. A yes stands for co-enrichment or nearness to the bait. Other partners may have been found.

Amino acid sequences for entries named in this document (tags omitted). A change or cut given only in a name is not applied to a line headed by its entry. Residues count along the entry.
UniProt P38647, residues 47-679: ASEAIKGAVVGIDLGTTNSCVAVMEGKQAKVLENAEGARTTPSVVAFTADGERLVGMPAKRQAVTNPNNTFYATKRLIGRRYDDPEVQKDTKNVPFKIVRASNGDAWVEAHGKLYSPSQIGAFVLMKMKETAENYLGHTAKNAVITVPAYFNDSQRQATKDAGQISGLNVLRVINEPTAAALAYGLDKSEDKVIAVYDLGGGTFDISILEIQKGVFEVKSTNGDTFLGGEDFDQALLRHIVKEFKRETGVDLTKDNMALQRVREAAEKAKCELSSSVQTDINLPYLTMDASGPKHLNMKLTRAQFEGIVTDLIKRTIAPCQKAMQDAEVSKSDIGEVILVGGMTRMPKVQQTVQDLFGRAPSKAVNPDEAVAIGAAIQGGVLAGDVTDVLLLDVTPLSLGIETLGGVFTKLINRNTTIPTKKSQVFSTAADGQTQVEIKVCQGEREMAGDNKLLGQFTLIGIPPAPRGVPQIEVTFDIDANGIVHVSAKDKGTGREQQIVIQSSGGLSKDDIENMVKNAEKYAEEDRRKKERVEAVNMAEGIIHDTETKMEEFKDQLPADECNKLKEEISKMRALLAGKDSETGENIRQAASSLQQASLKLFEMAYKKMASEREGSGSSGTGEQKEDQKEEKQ
UniProt Q60932: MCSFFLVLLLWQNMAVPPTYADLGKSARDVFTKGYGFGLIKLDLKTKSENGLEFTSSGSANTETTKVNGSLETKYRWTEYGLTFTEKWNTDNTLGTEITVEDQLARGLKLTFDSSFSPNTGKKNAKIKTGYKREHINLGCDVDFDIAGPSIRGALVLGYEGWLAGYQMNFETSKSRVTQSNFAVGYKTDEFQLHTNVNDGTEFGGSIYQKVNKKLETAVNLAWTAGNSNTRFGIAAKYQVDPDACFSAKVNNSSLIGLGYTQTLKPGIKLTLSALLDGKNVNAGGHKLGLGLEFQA
UniProt P11881: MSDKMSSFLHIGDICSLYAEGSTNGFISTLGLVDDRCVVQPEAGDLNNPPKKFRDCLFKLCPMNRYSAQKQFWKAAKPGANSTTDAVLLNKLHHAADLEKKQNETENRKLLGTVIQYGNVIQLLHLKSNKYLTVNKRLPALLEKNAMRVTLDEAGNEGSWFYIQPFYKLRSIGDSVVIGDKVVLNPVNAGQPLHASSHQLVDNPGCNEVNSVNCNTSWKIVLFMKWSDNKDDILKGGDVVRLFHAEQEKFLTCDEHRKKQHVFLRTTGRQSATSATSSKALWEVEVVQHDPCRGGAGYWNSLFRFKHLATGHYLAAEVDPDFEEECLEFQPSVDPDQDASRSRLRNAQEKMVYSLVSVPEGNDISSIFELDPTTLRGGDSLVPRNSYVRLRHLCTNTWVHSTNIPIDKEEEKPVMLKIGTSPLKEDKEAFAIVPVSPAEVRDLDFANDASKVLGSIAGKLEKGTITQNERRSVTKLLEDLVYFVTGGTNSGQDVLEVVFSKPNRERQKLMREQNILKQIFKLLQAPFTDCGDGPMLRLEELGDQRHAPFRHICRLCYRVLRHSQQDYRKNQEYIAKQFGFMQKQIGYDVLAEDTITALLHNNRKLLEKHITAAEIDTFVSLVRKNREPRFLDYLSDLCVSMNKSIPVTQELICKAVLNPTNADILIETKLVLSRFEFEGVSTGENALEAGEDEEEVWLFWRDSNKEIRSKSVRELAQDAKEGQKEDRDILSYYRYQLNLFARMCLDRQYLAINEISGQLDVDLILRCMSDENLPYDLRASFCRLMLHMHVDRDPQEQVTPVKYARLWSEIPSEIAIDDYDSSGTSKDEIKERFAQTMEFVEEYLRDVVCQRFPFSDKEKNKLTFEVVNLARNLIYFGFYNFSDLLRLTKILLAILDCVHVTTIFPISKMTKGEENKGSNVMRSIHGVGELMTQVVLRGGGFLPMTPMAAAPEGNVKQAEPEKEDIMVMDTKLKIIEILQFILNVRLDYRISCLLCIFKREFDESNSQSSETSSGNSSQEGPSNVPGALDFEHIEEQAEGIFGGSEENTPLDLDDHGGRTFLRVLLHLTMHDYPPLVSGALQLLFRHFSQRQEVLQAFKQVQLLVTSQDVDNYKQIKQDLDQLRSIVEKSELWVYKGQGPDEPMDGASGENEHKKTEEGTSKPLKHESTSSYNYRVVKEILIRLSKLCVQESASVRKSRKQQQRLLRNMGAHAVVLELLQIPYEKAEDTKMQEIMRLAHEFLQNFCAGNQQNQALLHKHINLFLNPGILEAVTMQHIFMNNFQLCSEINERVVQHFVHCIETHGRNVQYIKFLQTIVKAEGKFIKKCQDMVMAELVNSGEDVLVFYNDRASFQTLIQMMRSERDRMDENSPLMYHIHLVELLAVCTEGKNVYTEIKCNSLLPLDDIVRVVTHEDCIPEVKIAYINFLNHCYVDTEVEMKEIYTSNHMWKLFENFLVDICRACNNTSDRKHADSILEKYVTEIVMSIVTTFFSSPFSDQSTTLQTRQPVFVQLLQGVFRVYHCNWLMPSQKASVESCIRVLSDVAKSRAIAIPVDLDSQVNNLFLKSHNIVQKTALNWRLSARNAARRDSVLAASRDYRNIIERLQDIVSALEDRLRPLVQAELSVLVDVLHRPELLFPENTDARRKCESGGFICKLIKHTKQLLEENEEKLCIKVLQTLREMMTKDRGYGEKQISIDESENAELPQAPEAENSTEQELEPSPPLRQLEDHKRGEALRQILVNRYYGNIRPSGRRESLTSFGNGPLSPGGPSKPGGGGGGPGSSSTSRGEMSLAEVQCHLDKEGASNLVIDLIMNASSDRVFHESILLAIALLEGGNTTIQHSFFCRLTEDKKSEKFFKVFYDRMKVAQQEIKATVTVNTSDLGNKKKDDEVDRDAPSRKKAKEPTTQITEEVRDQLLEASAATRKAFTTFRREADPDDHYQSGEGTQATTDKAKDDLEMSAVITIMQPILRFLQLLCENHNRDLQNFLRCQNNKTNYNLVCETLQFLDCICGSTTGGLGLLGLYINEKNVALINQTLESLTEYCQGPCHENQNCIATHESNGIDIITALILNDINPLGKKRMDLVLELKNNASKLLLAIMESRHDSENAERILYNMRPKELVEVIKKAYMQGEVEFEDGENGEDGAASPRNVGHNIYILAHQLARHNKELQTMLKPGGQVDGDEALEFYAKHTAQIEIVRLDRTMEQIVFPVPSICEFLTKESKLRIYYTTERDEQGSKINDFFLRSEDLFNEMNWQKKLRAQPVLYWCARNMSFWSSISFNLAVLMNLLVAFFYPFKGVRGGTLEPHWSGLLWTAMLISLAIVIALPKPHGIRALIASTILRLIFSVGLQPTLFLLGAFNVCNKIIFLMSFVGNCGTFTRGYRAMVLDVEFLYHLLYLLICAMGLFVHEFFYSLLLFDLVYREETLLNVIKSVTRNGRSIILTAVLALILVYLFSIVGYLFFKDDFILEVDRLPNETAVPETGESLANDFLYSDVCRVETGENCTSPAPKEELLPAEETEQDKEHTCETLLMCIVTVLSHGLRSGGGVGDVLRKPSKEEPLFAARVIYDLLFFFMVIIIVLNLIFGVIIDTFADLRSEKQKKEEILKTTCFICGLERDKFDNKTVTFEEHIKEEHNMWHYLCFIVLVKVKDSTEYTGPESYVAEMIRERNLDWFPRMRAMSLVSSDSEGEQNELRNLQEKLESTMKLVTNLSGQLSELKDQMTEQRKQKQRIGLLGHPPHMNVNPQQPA

These substances were tested against T1, Parkin (mouse brain) (mouse (endogenous in brain)) (UniProt Q9WVS6) (assay: affinity purification with mass spectrometry; Parkin immunoprecipitated from substantia nigra of mouse brain, gel bands, LC-MS/MS).
T1 sequence: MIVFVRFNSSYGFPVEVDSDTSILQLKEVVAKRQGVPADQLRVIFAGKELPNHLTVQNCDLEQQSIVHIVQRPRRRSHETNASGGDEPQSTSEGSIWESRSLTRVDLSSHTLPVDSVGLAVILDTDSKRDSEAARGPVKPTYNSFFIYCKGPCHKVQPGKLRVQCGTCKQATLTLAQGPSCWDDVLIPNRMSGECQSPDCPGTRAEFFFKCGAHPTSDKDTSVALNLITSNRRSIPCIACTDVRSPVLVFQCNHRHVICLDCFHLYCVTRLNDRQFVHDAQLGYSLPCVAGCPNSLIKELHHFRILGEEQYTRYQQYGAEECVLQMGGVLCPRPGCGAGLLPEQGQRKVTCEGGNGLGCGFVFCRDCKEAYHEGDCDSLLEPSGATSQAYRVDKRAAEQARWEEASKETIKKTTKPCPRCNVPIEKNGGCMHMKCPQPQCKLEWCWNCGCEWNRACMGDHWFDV

binding, binds:
Grp75, mouse brain (from UniProt P38647 47-679)
VDAC1, mouse brain (from UniProt Q60932)
inositol-1,4,5-triphosphate receptor (IP3R), mouse brain (from UniProt P11881 1-2749)
